No constants are given. Whether binding was seen depends on the method and setting. Some entries that bind do so weakly or less than the wild type.

The chains behind the UniProt entries cited, without tags or fusion partners. Where a name states a change or a piece, a line headed by the entry shows the natural chain unless it says otherwise.
UniProt P37023: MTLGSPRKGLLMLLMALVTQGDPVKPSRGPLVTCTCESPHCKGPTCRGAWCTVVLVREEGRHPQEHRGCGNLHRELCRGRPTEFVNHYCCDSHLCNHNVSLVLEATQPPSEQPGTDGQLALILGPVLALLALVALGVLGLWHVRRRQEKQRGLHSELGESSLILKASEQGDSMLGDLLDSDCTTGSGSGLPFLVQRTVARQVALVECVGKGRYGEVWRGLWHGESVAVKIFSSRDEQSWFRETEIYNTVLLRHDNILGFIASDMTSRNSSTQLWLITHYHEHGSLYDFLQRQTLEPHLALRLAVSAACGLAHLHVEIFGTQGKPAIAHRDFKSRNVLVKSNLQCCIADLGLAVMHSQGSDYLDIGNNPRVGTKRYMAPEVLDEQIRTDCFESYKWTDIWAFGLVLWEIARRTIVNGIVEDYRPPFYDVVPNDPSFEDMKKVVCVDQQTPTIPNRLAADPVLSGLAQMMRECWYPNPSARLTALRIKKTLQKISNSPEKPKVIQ

Assay [1] deals with T1, BMP10 (UniProt O95393).
T1 sequence (looked up): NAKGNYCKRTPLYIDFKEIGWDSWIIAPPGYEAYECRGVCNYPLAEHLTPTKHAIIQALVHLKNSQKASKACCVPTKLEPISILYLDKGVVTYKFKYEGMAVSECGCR
Nature of the assay: Biacore SPR; complex captured by anti-Fc antibody, ligand injected. A general note: SPR reads the build-up and loss of mass on a sensor chip optically.

In assay [2] the target is T2, BMP9 (UniProt Q9UK05 320-429).
T2 construct: Ligand injected over the captured receptor protein
T2 sequence (looked up): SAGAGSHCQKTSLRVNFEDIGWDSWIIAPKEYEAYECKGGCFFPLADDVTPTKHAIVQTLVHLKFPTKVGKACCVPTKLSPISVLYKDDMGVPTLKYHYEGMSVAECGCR
The description is as above.

“ALK1-Fc:ALK1-Fc homodimer (from UniProt P37023 22-118) (Fc fusion)”: the binding entry in assay [1] and in assay [2] was “binds” throughout.

The values are drawn from patent US20200071382A1 (published 2020).
